Test results from paper PMC7956269.
No constants are given. Whether binding was seen depends on the method and setting. In cells and extracts the contact can be indirect. A yes stands for co-enrichment or nearness to the bait. Other partners may have been found.

The chains behind the UniProt entries cited, without tags or fusion partners. Residues count along the entry.
UniProt P28370: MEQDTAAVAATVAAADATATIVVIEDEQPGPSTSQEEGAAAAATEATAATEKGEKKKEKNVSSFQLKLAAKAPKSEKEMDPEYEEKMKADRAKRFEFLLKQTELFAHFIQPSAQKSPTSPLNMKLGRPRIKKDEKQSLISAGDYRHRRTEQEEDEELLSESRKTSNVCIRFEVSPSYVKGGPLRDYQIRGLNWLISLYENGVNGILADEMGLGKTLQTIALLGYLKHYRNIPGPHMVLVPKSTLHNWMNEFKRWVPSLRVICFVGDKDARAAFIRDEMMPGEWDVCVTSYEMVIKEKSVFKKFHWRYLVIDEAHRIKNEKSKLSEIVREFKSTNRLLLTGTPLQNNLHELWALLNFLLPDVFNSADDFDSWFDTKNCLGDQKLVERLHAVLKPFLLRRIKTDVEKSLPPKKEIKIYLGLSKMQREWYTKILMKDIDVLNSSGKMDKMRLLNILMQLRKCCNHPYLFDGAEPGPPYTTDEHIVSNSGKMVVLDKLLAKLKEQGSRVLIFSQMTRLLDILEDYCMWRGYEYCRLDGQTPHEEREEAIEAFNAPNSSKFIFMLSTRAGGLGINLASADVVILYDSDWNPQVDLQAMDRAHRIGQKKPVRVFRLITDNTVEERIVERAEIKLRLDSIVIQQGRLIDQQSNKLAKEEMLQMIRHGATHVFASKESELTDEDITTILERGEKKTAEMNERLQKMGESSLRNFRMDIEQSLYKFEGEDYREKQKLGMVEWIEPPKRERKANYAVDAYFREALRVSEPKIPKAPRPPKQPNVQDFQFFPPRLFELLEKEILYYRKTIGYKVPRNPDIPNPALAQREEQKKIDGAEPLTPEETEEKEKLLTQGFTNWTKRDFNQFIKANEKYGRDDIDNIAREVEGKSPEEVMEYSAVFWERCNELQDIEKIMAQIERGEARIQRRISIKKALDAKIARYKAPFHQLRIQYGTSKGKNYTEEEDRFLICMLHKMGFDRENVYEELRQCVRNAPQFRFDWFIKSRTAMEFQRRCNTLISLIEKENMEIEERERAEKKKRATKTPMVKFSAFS
UniProt O75643: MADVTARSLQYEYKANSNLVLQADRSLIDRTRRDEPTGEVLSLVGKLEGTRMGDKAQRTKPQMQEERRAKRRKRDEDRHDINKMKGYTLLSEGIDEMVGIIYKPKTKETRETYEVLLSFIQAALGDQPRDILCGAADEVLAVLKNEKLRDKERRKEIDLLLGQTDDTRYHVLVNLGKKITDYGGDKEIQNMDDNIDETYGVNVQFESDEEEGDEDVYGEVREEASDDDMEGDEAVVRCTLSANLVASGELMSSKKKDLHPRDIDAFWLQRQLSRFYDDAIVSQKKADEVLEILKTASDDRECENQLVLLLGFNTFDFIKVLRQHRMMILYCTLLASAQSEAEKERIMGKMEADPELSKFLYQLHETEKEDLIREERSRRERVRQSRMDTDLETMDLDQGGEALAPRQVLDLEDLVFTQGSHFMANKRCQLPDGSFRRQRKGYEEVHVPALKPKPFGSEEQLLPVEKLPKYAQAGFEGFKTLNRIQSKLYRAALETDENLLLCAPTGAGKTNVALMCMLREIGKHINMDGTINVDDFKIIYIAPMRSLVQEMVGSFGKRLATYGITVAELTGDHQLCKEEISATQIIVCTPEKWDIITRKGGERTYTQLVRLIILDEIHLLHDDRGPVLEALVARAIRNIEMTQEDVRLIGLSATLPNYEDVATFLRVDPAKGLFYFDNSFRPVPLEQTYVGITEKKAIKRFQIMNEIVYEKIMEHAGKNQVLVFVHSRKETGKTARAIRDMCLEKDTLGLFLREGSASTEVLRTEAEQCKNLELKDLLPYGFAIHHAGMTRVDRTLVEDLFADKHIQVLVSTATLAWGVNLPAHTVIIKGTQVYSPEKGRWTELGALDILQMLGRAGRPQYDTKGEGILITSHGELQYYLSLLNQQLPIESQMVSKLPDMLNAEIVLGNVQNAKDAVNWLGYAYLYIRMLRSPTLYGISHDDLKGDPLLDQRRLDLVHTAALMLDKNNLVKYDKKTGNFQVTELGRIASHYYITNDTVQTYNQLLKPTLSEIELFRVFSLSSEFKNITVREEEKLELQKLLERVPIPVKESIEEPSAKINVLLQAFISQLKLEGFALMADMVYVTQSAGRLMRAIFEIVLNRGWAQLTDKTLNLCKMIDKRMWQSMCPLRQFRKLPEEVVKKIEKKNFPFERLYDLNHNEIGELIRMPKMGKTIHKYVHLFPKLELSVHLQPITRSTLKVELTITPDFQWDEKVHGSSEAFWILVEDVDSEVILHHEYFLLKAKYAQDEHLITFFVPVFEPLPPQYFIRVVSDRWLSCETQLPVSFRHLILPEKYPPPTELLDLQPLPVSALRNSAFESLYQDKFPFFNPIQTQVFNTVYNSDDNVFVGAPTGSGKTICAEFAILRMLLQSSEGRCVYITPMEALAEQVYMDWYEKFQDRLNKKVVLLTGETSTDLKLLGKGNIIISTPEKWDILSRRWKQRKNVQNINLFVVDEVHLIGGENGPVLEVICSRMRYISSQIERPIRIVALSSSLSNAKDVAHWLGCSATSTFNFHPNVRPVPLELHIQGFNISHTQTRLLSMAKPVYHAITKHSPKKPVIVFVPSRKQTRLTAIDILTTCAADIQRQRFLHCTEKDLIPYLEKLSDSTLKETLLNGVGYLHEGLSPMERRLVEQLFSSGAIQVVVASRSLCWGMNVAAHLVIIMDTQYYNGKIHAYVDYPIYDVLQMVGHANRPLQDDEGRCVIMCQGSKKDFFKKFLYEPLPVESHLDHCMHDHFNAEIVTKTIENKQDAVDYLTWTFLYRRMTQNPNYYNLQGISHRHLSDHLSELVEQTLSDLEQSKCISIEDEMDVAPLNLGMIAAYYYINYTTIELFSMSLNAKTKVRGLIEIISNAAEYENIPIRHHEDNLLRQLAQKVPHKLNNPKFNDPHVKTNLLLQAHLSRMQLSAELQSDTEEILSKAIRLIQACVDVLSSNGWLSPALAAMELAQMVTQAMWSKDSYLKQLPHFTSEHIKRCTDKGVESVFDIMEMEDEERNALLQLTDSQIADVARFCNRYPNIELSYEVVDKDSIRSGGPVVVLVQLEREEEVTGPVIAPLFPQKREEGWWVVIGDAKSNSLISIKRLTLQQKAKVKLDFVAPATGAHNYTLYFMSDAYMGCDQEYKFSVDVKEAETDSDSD
UniProt Q05066: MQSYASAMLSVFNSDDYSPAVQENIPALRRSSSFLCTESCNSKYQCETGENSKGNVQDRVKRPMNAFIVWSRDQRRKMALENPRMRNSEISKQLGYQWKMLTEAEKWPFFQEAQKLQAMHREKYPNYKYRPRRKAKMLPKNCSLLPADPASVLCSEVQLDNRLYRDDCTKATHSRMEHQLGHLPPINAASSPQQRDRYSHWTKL
UniProt Q9BYT3: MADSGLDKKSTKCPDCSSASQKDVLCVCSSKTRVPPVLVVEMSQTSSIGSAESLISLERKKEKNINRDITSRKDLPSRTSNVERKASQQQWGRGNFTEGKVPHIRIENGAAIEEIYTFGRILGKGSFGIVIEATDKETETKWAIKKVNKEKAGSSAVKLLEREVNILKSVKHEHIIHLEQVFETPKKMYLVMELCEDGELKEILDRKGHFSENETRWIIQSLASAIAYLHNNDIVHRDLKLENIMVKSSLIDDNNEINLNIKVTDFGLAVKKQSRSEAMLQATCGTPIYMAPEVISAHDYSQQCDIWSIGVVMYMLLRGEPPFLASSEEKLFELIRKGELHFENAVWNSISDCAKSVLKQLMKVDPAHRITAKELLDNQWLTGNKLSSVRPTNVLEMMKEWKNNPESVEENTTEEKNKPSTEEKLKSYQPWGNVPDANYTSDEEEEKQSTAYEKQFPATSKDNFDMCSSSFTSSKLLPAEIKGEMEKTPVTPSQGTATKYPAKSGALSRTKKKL
UniProt Q13148: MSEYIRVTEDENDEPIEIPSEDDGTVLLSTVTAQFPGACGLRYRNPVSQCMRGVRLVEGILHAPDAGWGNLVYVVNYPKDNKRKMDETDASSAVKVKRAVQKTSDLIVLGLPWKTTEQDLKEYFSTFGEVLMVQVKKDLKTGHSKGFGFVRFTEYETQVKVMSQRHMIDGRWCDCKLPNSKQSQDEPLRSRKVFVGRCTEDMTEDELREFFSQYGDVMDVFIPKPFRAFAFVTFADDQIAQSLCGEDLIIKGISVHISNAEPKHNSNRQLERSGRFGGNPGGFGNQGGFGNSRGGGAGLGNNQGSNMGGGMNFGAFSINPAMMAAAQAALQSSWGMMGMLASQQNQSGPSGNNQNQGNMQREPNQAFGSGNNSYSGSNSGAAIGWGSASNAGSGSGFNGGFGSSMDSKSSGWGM
UniProt Q3ZCQ8, residues 45-353: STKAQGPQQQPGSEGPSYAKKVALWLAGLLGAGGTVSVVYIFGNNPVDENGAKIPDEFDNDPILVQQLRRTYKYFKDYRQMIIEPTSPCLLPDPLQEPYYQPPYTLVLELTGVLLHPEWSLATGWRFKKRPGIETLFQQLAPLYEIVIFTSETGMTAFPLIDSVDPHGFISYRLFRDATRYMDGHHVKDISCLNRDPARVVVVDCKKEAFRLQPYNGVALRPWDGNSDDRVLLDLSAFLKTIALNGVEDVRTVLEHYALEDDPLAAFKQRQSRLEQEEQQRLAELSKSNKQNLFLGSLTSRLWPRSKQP
UniProt Q14157: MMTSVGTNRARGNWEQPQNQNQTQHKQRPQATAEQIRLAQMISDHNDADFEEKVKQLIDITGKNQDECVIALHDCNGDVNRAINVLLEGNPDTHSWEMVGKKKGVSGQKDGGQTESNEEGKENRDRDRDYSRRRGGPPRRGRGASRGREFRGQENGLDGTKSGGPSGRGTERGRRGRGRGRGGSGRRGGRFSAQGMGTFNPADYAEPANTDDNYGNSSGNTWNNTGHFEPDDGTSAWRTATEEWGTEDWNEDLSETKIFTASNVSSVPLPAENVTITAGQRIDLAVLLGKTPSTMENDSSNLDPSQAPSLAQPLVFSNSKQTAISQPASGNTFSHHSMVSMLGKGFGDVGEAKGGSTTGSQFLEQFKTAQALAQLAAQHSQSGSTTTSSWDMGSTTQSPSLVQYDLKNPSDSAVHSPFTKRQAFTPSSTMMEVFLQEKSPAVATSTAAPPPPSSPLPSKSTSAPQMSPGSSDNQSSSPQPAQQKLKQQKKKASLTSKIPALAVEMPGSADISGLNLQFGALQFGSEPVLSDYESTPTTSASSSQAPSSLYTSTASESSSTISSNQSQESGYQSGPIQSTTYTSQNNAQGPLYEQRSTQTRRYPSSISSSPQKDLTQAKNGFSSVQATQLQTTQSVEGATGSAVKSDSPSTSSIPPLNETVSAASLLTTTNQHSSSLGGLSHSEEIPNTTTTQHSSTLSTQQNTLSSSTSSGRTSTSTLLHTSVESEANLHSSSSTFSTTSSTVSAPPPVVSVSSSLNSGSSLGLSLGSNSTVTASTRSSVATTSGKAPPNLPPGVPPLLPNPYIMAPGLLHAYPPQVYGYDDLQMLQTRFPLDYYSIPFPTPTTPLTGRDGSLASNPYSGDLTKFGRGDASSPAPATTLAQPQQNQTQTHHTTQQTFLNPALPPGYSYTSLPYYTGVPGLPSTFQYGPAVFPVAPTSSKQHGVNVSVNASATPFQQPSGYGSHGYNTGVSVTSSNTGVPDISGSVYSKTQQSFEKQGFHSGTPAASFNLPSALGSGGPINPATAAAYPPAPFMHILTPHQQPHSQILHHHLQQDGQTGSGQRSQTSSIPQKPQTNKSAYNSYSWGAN
UniProt Q9UHD9: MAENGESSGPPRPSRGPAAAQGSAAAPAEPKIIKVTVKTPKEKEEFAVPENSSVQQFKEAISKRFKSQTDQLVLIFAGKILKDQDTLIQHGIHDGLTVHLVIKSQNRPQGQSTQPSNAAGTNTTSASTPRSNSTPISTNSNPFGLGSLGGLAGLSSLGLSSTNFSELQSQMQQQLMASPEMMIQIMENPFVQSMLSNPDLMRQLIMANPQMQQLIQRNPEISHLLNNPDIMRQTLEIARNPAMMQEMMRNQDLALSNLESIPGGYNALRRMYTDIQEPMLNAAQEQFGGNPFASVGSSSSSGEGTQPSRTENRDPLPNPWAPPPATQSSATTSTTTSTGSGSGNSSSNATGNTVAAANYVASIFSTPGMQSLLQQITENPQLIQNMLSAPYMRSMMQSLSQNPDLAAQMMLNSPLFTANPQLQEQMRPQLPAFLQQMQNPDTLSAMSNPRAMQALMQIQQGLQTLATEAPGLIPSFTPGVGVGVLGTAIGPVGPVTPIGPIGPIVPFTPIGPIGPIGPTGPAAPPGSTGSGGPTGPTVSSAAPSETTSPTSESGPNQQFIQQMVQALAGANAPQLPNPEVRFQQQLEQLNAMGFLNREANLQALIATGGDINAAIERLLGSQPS

molecular target: Biotin-FOXC1 (mouse) (UniProt Q61572); test: affinity purification with mass spectrometry; streptavidin-agarose precipitation of biotinylated FOXC1 from nuclear extract of stable HEK293T cells (293T-Biotin-FOXC1); IP350 buffer (350 mM NaCl, 20 mM Tris-HCl pH 7.5, 0.5% NP40, 1 mM EDTA, 10% glycerin); SDS-PAGE, LC-ESI-MS/MS; proteins of the 293T-Biotin control deducted

binding, binds:
Rhot1 (from UniProt Q8IXI2 1-618)
Rif1 (from UniProt Q5UIP0 1-2472)
Rsbn1 (from UniProt Q5VWQ0 1-802)
Ruvbl1 (from UniProt Q9Y265 1-456)
Sbf1 (from UniProt O95248 1-1868)
Senp3 (from UniProt Q9H4L4 1-574)
Sf3b1 (from UniProt O75533 1-1304)
Slk (from UniProt Q9H2G2 1-1235)
Smarca1 (from UniProt P28370 1-1042)
Smarca4 (from UniProt P51532 1-1647)
Smarca5 (from UniProt O60264 1-1052)
Smarcb1 (from UniProt Q12824 1-385)
Smarcc1 (from UniProt Q92922 1-1105)
Smarcd1 (from UniProt Q96GM5 1-515)
Smarce1 (from UniProt Q969G3 1-411)
Smc3 (from UniProt Q9UQE7 1-1217)
Snrnp200 (from UniProt O75643 1-2136)
Sptan1 (from UniProt Q13813 1-2472)
Sry (from UniProt Q05066 1-204)
Stag2 (from UniProt Q8N3U4 1-1231)
Stk33 (from UniProt Q9BYT3 1-514)
Tardbp (from UniProt Q13148 1-414)
Tcerg1 (from UniProt O14776 1-1098)
Timm44 (human (endogenous in HEK293T))
Timm50 (from UniProt Q3ZCQ8 45-353)
Tln1 (from UniProt Q9Y490 1-2541)
Top1 (from UniProt P11387 1-765)
Trim28 (from UniProt Q13263 1-835)
Tuba1b (from UniProt P68363 1-451)
Tubb4b (from UniProt P68371 1-445)
Ubap2l (from UniProt Q14157 1-1087)
Ubqln2 (from UniProt Q9UHD9 1-624)
Xpo1 (from UniProt O14980 1-1071)
Yy1 (from UniProt P25490 1-414)
Zbtb7a (from UniProt O95365 1-584)
Zfp346 (human (endogenous in HEK293T))
Zfp512 (human (endogenous in HEK293T))
Zfp768 (human (endogenous in HEK293T))
